The target of test [1] is T1, Myc-tagged IRS4 (insulin receptor substrate 4), full-length (human) (UniProt O14654).
T1 sequence: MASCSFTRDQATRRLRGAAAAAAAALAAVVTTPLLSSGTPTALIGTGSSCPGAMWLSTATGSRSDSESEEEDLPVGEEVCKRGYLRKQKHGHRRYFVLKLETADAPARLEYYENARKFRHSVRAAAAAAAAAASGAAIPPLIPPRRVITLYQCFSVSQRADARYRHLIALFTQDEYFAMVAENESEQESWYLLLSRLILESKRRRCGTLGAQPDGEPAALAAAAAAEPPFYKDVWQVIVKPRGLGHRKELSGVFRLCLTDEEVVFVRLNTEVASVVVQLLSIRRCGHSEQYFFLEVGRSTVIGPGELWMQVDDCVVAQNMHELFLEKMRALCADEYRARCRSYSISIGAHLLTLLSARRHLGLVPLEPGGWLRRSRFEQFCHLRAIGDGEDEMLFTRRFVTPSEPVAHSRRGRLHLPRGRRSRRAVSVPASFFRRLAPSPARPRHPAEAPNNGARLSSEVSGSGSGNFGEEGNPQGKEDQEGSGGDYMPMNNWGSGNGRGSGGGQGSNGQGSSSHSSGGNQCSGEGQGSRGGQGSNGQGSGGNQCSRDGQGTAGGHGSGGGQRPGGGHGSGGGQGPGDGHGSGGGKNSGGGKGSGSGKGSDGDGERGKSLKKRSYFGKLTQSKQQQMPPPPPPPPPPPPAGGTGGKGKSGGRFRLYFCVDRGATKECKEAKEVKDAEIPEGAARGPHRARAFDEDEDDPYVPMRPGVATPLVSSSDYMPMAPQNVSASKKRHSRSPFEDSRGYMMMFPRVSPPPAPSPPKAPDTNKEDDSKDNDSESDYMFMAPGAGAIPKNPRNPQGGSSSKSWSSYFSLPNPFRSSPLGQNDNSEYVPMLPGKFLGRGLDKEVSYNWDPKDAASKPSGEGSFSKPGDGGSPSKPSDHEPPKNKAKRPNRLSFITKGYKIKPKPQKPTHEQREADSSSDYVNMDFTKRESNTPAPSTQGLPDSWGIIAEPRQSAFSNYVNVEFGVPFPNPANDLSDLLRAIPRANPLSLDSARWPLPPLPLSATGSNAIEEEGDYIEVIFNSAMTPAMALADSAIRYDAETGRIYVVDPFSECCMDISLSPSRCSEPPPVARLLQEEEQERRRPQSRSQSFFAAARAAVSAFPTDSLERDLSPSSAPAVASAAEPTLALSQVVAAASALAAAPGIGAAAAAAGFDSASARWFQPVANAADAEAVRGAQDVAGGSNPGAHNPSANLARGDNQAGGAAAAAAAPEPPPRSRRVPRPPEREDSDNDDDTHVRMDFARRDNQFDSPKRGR
The experiment in a line: co-IP; HEK293FT cells transiently co-transfected; lysis in 20 mM HEPES pH 7.5, 150 mM NaCl, 1% Nonidet P-40, 1 mM sodium orthovanadate; Myc-tagged IRS4 form precipitated with anti-Myc resin, partners found by immunoblot; some panels with or without co-expressed FLAG-IRS1, FLAG-PIK3R1 or FER. (In western blotting, separated proteins are transferred to a membrane and probed.)

Test [2] concerns the target T2, Myc-tagged IRS4 1–200 (PH domain only) (human) (UniProt O14654).
T2 sequence: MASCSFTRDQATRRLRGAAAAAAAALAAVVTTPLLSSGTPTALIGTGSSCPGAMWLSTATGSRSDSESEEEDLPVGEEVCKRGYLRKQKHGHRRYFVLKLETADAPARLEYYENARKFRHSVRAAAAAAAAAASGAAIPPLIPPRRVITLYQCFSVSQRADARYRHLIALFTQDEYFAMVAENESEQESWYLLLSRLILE
The test is described as above.

In test [3] the target is T3, Myc-tagged IRS4 200–400 (PTB domain only) (human) (UniProt O14654).
T3 sequence: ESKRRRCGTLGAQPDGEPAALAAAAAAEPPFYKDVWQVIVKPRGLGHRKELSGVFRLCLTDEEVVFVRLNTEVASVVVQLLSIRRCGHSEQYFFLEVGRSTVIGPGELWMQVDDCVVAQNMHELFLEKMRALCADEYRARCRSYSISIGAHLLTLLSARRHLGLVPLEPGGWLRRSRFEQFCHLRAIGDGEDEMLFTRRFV
Described as above.

A further test addresses GFP-tagged FER (UniProt P16591). The experiment in a line: co-IP; HEK293FT cells co-transfected with GFP-tagged FER and YFP-tagged IRS4 truncations; immunoprecipitation with FER antibody, immunoblot with YFP antibody.

These are yes or no findings as the source states them, for the method shown. In cells and extracts the contact can be indirect. Some binding calls cover weakened binding; strength is not graded here. Where a sequence is shown, tags or fusion partners need not be part of it.

B1: GFP-FER 447–550 (SH2 domain) (domain or fragment, UniProt P16591 447-550)
chain: MISISEKPLAEQDWYHGAIPRIEAQELLKKQGDFLVRESHGKPGEYVLSVYSDGQRRHFIIQYVDNMYRFEGTGFSNIPQLIDHHYTTKQVITKKSGVVLLNPI
Regarding B1, the binding result in test [1], in test [2] and in test [3] was “no binding” throughout.

B2: YFP-tagged IRS4 401–1257 (domain or fragment, UniProt O14654 401-1257)
chain: TPSEPVAHSRRGRLHLPRGRRSRRAVSVPASFFRRLAPSPARPRHPAEAPNNGARLSSEVSGSGSGNFGEEGNPQGKEDQEGSGGDYMPMNNWGSGNGRGSGGGQGSNGQGSSSHSSGGNQCSGEGQGSRGGQGSNGQGSGGNQCSRDGQGTAGGHGSGGGQRPGGGHGSGGGQGPGDGHGSGGGKNSGGGKGSGSGKGSDGDGERGKSLKKRSYFGKLTQSKQQQMPPPPPPPPPPPPAGGTGGKGKSGGRFRLYFCVDRGATKECKEAKEVKDAEIPEGAARGPHRARAFDEDEDDPYVPMRPGVATPLVSSSDYMPMAPQNVSASKKRHSRSPFEDSRGYMMMFPRVSPPPAPSPPKAPDTNKEDDSKDNDSESDYMFMAPGAGAIPKNPRNPQGGSSSKSWSSYFSLPNPFRSSPLGQNDNSEYVPMLPGKFLGRGLDKEVSYNWDPKDAASKPSGEGSFSKPGDGGSPSKPSDHEPPKNKAKRPNRLSFITKGYKIKPKPQKPTHEQREADSSSDYVNMDFTKRESNTPAPSTQGLPDSWGIIAEPRQSAFSNYVNVEFGVPFPNPANDLSDLLRAIPRANPLSLDSARWPLPPLPLSATGSNAIEEEGDYIEVIFNSAMTPAMALADSAIRYDAETGRIYVVDPFSECCMDISLSPSRCSEPPPVARLLQEEEQERRRPQSRSQSFFAAARAAVSAFPTDSLERDLSPSSAPAVASAAEPTLALSQVVAAASALAAAPGIGAAAAAAGFDSASARWFQPVANAADAEAVRGAQDVAGGSNPGAHNPSANLARGDNQAGGAAAAAAAPEPPPRSRRVPRPPEREDSDNDDDTHVRMDFARRDNQFDSPKRGR
In the case of B2, the binding result with GFP-tagged FER is given as “no binding”.

B3: GFP-FER 563–822 (kinase domain) (domain or fragment, UniProt P16591 563-822)
chain: VILGELLGKGNFGEVYKGTLKDKTSVAVKTCKEDLPQELKIKFLQEAKILKQYDHPNIVKLIGVCTQRQPVYIIMELVSGGDFLTFLRRKKDELKLKQLVKFSLDAAAGMLYLESKNCIHRDLAARNCLVGENNVLKISDFGMSRQEDGGVYSSSGLKQIPIKWTAPEALNYGRYSSESDVWSFGILLWETFSLGVCPYPGMTNQQAREQVERGYRMSAPQHCPEDISKIMMKCWDYKPENRPKFSELQKELTIIKRKLT
B3: the binding entry in test [1], in test [2] and in test [3] was “binds” each time.
